# Where “and” joins values, the source holds several entries; their conditions need not be identical. Equal entries are not always repeated. Inconclusive means that the source gave no clear call. Such entries were picked first, then a sample of the others. For part of these data: Potencies of inconclusive entries are doubtful fits and often do not repeat. Where a structure was tested more than once in an assay, its records may differ in their call. Calls of active or inactive are those of the source. Unless noted, calls come from the whole dose curve.
# Chains of the proteins cited; added tags and fusions are not shown. Lines headed by an entry give the natural chain unless they say otherwise; changes in a name come on top.
# UniProt P11229: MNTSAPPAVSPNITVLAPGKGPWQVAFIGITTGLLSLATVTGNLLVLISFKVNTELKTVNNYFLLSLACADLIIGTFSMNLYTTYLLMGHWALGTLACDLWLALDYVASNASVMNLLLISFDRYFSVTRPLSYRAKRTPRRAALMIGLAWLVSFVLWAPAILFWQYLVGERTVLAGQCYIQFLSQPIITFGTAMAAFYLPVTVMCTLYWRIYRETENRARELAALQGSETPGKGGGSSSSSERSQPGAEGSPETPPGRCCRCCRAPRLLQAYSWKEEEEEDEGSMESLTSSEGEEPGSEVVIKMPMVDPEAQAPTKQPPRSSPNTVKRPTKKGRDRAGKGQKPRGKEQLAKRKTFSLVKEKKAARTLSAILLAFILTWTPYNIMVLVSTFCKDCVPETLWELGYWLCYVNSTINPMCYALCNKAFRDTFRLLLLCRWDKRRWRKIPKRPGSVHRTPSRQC
# UniProt P14416, whole entry, looked up: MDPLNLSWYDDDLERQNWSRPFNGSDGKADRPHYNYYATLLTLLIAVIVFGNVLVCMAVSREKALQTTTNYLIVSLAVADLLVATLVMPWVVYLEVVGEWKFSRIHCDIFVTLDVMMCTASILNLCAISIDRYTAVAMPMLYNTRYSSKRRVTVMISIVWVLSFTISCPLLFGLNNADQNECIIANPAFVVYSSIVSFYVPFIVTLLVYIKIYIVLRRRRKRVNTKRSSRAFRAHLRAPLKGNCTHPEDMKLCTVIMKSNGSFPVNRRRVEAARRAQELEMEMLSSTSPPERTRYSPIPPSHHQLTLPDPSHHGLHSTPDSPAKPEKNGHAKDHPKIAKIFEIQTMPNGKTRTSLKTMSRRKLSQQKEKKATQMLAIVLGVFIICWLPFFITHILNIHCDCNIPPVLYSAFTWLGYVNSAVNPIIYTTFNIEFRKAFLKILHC
# How the values were obtained:
# [1] = Nuclear factor erythroid 2-related factor 2/antioxidant responsive element (Nrf2/ARE) small molecule agonists: luciferase reporter gene qHTS assay in human keratinocytes (AID 1919969); note: nearly all actives have a fitted effect of over 35% in size; note: potency is the fitted concentration of half-maximal effect
# [2] = p53 small molecule agonists, cell-based qHTS assay with human liver microsomes (AID 1963577); conditions: HCT-116 p53RE-bla with human liver microsomes, ratio, 16 h; activation: at 66 µM (top of the series) unless noted; note: potency is the fitted concentration of half-maximal effect;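 for activation: p53 response element beta-lactamase reporter cells with liver microsomes plus NADPH; % is set by controls: 0 for no effect and ±100 for the full control effect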
# Outline: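 Reporter activation was measured by LiveBLAzer fluorescence intensity in p53RE-bla cells, which had been exposed to compounds for 16 h at 37 C alongside 0.5 mg/mL human liver microsomes and 0.5 mg/mL NADPH (final concentrations).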
# [3] = p53 small molecule agonists, cell-based qHTS assay (AID 1963582; active = well fitted activation curve with a large enough effect in the signal ratio in the repeat runs, not every such curve was filed as active; inconclusive = weak or mixed curves; the % refers to the signal ratio; note: potency is the fitted concentration of half-maximal effect); conditions: HCT-116 p53RE-bla reporter, beta-lactamase FRET ratio, 16 h; activation: at 66 µM (top of the series) unless noted
# Outline: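 Quantitative HTS in p53RE-bla cells: after a 5 h settling period, compounds delivered in DMSO were left on cells for 16 h at 37 C, and reporter induction was measured as fluorescence following 2 h substrate loading.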
# [4] = target: Muscarinic acetylcholine receptor M1 (Homo sapiens) (UniProt P11229); assay: Cholinergic receptor muscarinic 1 (CHRM1) small molecule antagonists, cell-based qHTS assay (AID 1963588); note: potency is the fitted concentration of half-maximal effect; nearly all actives have a fitted effect of over 40% in size
# Outline: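 CHRM1-CHO calcium-flux assay, antagonist mode. Cells were seeded 18 h, dye-loaded 1 h at 37 C and given compound for 5 min at RT, then acetylcholine was added at 50nM. FDSS fluorescence was read 3 min; 15 concentrations, three runs.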
# [5] = target: Beta-2 adrenergic receptor (Homo sapiens) (UniProt P07550); assay: Adrenergic beta2 receptor (ADRB2) small molecule agonists, cell-based qHTS assay (AID 1963593); conditions: CHO-ADRB2 cells, cAMP HTRF, 30 min; note: potency is the fitted concentration of half-maximal effect;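 for activation: CHO cells stably overexpressing human ADRB2; % is set by controls: 0 for no effect and ±100 for the full control effect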
# Outline: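 CHO cells stably over-expressing ADRB2 were plated overnight at 37C, then dosed with compounds plus a stimulation mix containing 100uM IBMX and 25uM Ro-20-1724 for 0.5hr at room temperature. cAMP was measured by HTRF competition, 1hr.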
# [6] = target: D(2) dopamine receptor (Homo sapiens) (UniProt P14416); assay: Dopamine D2 receptor (DRD2) small molecule agonists, cell-based qHTS assay (AID 1963594); conditions: HEK293-DRD2 cAMP HTRF, agonist mode, 30 min; activation: at 92.4 µM (top of the series) unless noted; note: % is set by controls: 0 for no effect and ±100 for the full control effect; nearly all actives have a fitted effect of over 35% in size
# Outline: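 HEK293 cells stably expressing DRD2 were cultured 24 h at 37 C, then given Ro20-1724 (0.1 mM final) and compounds for 10 min at room temperature. NKH477 (200nM) was then added for 30 min. cAMP was read by HTRF.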
# [7] = cAMP Responsive Elements (CRE) small molecule antagonists, cell-based qHTS assay (AID 1963591; active = well fitted inhibition curve with a large enough effect in the signal ratio in the repeat runs, not every such curve was filed as active; inconclusive = weak or mixed curves, or effect the other way; the % refers to the signal ratio; note: potency is the fitted concentration of half-maximal effect; for activity change, negative = inhibition: % is set by controls: 0 for no effect and ±100 for the full control effect); conditions: CRE-bla HEK293T, beta-lactamase FRET ratio; activity change, negative = inhibition: at 92.4 µM (top of the series) unless noted
# Outline: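 Antagonist mode: test compounds are co-incubated with the adenylyl cyclase activator NKH477 (0.25 uM final) on CRE-bla HEK293T cells for 3 h at 37 °C, followed by LiveBLAzer substrate loading.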
# [8] = p53 small molecule agonists, cell-based qHTS assay with human liver microsomes: qHTS cell viability counter screen (AID 1963579); note: nearly all actives have a fitted effect of over 45% in size; note: potency is the fitted concentration of half-maximal effect
# Outline: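 HLM-supplemented (0.5 mg/mL final) and NADPH-supplemented (0.5 mg/mL final) p53RE-bla cultures, 4,000 cells per well, were dosed with compounds in DMSO for 16 h at 37 C; luminescent ATP detection (CellTiter-Glo, 30 min, room temperature) quantified surviving cells.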
# [9] = p53 small molecule agonists, cell-based qHTS assay: qHTS cell viability counter screen (AID 1963581); note: nearly all actives have a fitted effect of over 45% in size; note: potency is the fitted concentration of half-maximal effect
# Outline: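 Cells: HCT-116 with p53 response element-driven beta-lactamase. Treatment: 16 h, 37 C, compounds in DMSO. Read: CellTiter-Glo luminescence after 30 min RT.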
# [10] = cAMP Responsive Elements (CRE) small molecule agonists, cell-based qHTS assay (AID 1963590); conditions: CRE-bla HEK293T, beta-lactamase FRET ratio, 3 h; activation: at 92.4 µM (top of the series) unless noted; note: potency is the fitted concentration of half-maximal effect
# Outline: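 Agonist mode qHTS in CRE-bla HEK 293T cells: compounds dosed from DMSO for 3 h at 37 C/5% CO2, followed by LiveBLAzer B/G FRET substrate for 2 h at room temperature.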
# [11] = p53 small molecule agonists, cell-based qHTS assay with rat liver microsomes: qHTS cell viability counter screen (AID 1963580); note: potency is the fitted concentration of half-maximal effect; nearly all actives have a fitted effect of over 45% in size
# Outline: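 p53RE-bla HCT-116 cells (4,000/well) rested 5 h at 37 C, then given Tox21 compounds in DMSO with rat liver microsomes (0.5 mg/mL final) plus NADPH (0.5 mg/mL final) for 16 h at 37 C. Viability read by CellTiter-Glo luminescence after 30 min at room temperature.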
# [12] = activation: at 92.4 µM (top of the series) unless noted
smiles,measurement,setting,value
COC(C)(C)CCCC(C)C/C=C/C(C)=C/C(=O)OC(C)C (stereo unspecified),Potency,[1],inconclusive: 26.6 µM [activator]
same,Potency,[2],"inconclusive: 0.793 µM [rising, single point]"
same,Potency,[3],"inconclusive: 0.0401 µM [rising, full curve, poor fit]"
same,Potency,[4],active: 0.0033 µM
same,activation,[5]; [12],inconclusive: -5.54% [at 42.5 µM]
same,Potency,[6],inactive
NCCOS(=O)(=O)O,Potency,[1],inactive
same,Potency,[2],inactive
same,Potency,[7],inactive
same,activation,[5]; [12],inconclusive: -10%
C[C@]12CC[C@H]3[C@@H](CC[C@@]45O[C@@H]4C(O)=C(C#N)C[C@]35C)[C@@H]1CC[C@@H]2O,Potency,[1],active: 68.6 µM
same,Potency,[8],"inconclusive: 51.3 µM [cytotoxic, single point]"
same,Potency,[11],"inconclusive: 51.3 µM [cytotoxic, single point]"
same,Potency,[9],"inconclusive: 51.3 µM [cytotoxic, single point]"
same,Potency,[10],"inconclusive: 30.6 µM [rising, partial curve] and inconclusive: 26.6 µM [rising, partial curve]"
same,Potency,[7],"inconclusive: 30.6 µM [fluorescent, partial curve] and inconclusive: 18.8 µM [fluorescent, partial curve, poor fit]"
same,activation,[5]; [12],inconclusive: -43% [at 42.5 µM]
same,activation,[5]; at 92.4 µM (top of the series),inactive: -10%
same,activation,[6],inconclusive: -7.01% [at 42.5 µM]
O=C1c2ccccc2C(=O)C1C(=O)C(c1ccccc1)c1ccccc1,Potency,[1],"inconclusive: 26.6 µM [activator, partial curve]"
same,Potency,[2],"inconclusive: 7.93 µM [fluorescent, full curve]"
same,Potency,[3],"inconclusive: 25.1 µM [activator, partial curve, poor fit]"
same,Potency,[10],"inconclusive: 33.5 µM [rising, single point]"
same,Potency,[5]; [12],"inconclusive: 18.8 µM [activator, partial curve, poor fit]"
same,Potency,[6],inactive
COP(=O)(OC)OC=C(Cl)Cl,Potency,[1],"inconclusive: 29.8 µM [activator, single point]"
same,Potency,[11],active: 0.412 µM
same,Potency,[9],inactive
same,Potency,[5]; [12],"inconclusive: 0.106 µM [inhibitor, single point]"
same,activation,[5]; [12],inconclusive: 5.49% [at 42.5 µM]

# Part of the list above, reformatted.
smiles	measurement	setting	value
COC(C)(C)CCCC(C)C/C=C/C(C)=C/C(=O)OC(C)C (stereo unspecified)	activation	[5]; [12]	inconclusive: -5.54% [at 42.5 µM]
same	Potency	[6]	inactive
